# Primary screen of a compound library

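Assay of Toxoplasma gondii numbers, read through their beta-galactosidase reporter with a colour substrate. Compounds at 50 µM. The record gives no direction; the compounds picked for IC50 retests had high values, so higher reads as fewer parasites. Of about 18,000 compounds tested this way, about 170 (0.94%) reached 50% or more in at least one test.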

Each number is a percent effect as filed.
The record does not define 0% and 100%; most values in the screen are far below 50% and negative numbers occur (in some assays of this library far below -100).
This is an unselected part of the compounds tested.

CCOC(=O)CNC(C)=O read 3.386%. Cn1ncnc1NC(=O)c1c(F)cc(F)cc1F gave 3.154%. Result for CCN(Cc1[nH]cnc1C)C1CCS(=O)(=O)C1 (centres undefined) was -20.66%. COc1ccccc1-c1noc(CN)n1 gave -1.06%.

For COc1ccc(C(=O)N(C)CCn2cccn2)cc1 the result was -2.44%. Cc1cc(C(=O)Nc2cccc(C[S+](C)[O-])c2)on1 (centres undefined) gave 98.42%. For COC(=O)CC1C(=O)NCCN1Cc1ccccc1 (centres undefined) the result was -8.564%. CSCc1nc(CNC(=O)CCc2ccnn2C)cs1 gave -11.68%.

For NC(c1cncc(Br)c1)C1CC1 (centres undefined) the result was 7.15%. CN(CCCC(=O)N1CCCCC1)CC1CCCO1 (centres undefined) read -0.6462%. For CC(C)NC1CCN(C(=O)Nc2ccncc2)CC1 the result was -7.229%. With N#Cc1ccc(OC2CCC(N)CC2)nc1 (centres undefined) the screen gave 4.715%.

CCn1nc(C)c(CN2CCCCC(N)C2)c1C (centres undefined) gave 1.834%. For CN(C)CCNC(=O)c1ccc(Br)o1 the result was 0.2333%. With Cc1cc(NC(=O)c2cscc2C)nc(=O)[nH]1 the screen gave 16.66%. With CCOC(=O)N1CCN(S(=O)(=O)c2cccs2)CC1 the screen gave -14.82%.

COC[C@@H](C)NC(=O)c1nc(SC)n2ccccc12 gave 19.05%. COCC1CN(c2ccc3nccn3n2)CCO1 (centres undefined) read -6.216%. NCc1ccc(CC(N)=O)cc1 gave 14.12%. For CNCC1CCCN(C(=O)Cc2cccc(F)c2F)C1 (centres undefined) the result was -12.5%.

Result for CC(C)=CCNC(C(=O)N1CCOCC1)C(C)C (centres undefined) was 7.201%. For CCC1CN(CCN2CCCC2=O)CCN1CCOC (centres undefined) the result was -0.9165%. For COCCNS(=O)(=O)c1ccc2[nH]c(=O)sc2c1 the result was -0.8656%. For COc1cccn(CC(=O)N2CCCC(N)CC2)c1=O (centres undefined) the result was 33.61%.

With N#CCCCNC(CO)c1ccc(Cl)cc1 (centres undefined) the screen gave -7.549%. Result for Nc1nc(-c2ccco2)nn1C(=O)c1cccs1 was 13.67%. Result for CCOC(=O)C(C)Nc1ccc2oc(=O)[nH]c2c1 (centres undefined) was -10.32%. Cc1ccnc(NC(=O)N2CCNC(=O)C2)c1 read -8.508%.

CN(C)S(=O)(=O)NCCCC(C)(C)CO gave 22.8%. Result for Cc1cc(NC(=O)Nc2ccccn2)n(C)n1 was 0.6463%. Result for Nc1nc(-c2c(F)cccc2F)co1 was -3.627%.

Source: ChEMBL document CHEMBL3988442, “University of Dundee, Small-Polar-MMV Screening Library” (2021).